In the data set the test system is zebrafish embryos. Nature of the data set: Twenty-four-hour acute toxicity test (lethality and abnormalities, 4 to 5 dpf). The class given is in vivo, Danio rerio. As to conditions: for Hill Slope: lethality concentration-response curve, 24 h exposure; for Hill slope factor, times higher than for the other illicit drugs: 24 h lethality curves. How it is done:
Experiments were conducted to assess lethality after 24 h exposure and quantify drug-induced effects on heart rate after 2 h exposure. Experiments were performed on day 4 of zebrafish development (4 dpf). On the day of the experiment, eleutheroembryos (hereafter embryos) were distributed into a 6-well plate (Thermo-Fisher Scientific, Madrid, Spain) by adding 12 embryos into each well with 5 mL of test solution. Embryos were exposed by immersion at 20 min intervals so that they could be mounted individually by ensuring equal exposure times in all groups. Each drug was tested at different concentrations (ranging from 1 to 1000 µM) in parallel with a control group (Goods buffer TAPS alone). The concentration range used was based on previous experiments with MDMA [58].
Embryos at 4 dpf were distributed to 6-well plates, and 10 embryos were placed into each well with 5 mL of drug test solution. Plates were incubated at 26 ± 1 °C under a 14:10 light:dark cycle for 24 h. Following 24 h exposure, endpoints used for assessing lethality (coagulation or lack of heartbeat) and morphological/functional abnormalities were recorded for each treatment group. Each drug was tested at different concentrations, and at least three independent experiments were performed.
Concentration–response curves were derived from 2 h exposures and the 24 h acute toxicity test as effective concentrations 50 (EC50) and lethal concentrations 50 (LC50), respectively. Concentration–response curves were obtained with a sigmoidal concentration–response equation (Hill equation) using the package drc in R software (v.R-3.6.1).

This is an account of results in paper PMC10531093, “First-Generation Synthetic Cathinones Produce Arrhythmia in Zebrafish Eleutheroembryos: A New Approach Methodology for New Psychoactive Substances Cardiotoxicity Evaluation” (International Journal of Molecular Sciences, 2023).

Turning to `COC(=O)[C@H]1[C@@H](OC(=O)c2ccccc2)C[C@@H]2CC[C@H]1N2C` [Cocaine, cocaine], the “Hill Slope” value was found to be 2.81.

Regarding `CNC(C)Cc1ccc2c(c1)OCO2` (stereo not shown) [MDMA, 3,4-methylenedioxy-methamphetamine], the “Hill Slope” value was 2.65.

Turning to `CCCC(C(=O)c1ccc2c(c1)OCO2)N1CCCC1` (stereo not shown) [MDPV, 3,4-methylenedioxy-pyrovalerone], the “Hill slope factor, times higher than for the other illicit drugs” value is listed as “approximately 3 times” and the “Hill Slope” value is recorded as 6.88.

Consider `CNC(C)C(=O)c1ccc(C)cc1` (stereo not shown) [Mephedrone, mephedrone], for which the “Hill Slope” value came to 1.86.

For the compound `CNC(C)C(=O)c1ccc2c(c1)OCO2` (stereo not shown) [Methylone, methylone], the “Hill slope factor, times higher than for the other illicit drugs” value was around 7.5 times and the “Hill Slope” value is recorded as 15.3.
